Source: paper PMC10774338
Residue numbers refer to the chain shown, from its start. No constants are given. Whether binding was seen depends on the method and setting. In cells and extracts the contact can be indirect. Some entries that bind do so weakly or less than the wild type. Sequences can lack the tags named with a protein.

Chains of the proteins cited; added tags and fusions are not shown.
UniProt P62491: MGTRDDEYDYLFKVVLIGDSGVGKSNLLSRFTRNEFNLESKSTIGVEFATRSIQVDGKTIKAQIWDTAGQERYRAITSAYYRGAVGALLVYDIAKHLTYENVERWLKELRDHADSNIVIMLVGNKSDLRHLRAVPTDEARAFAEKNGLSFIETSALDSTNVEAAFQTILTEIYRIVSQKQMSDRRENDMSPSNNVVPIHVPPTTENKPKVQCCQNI

What was measured:
[1] = target: T1, Myc-tagged WDR44 D648G (human) (UniProt Q5JSH3); experiment: co-IP; GFP-RAB11A and Myc-WDR44 wild-type or variant coexpressed in 293T for 48 h; Myc-tagged proteins immunoprecipitated from lysate (150 mM NaCl, 20 mM Tris HCl pH 8.0, 10% glycerol, 1% Triton X-100; Protein G Sepharose), blots probed for GFP and Myc; also done after 3 h and 24 h serum starvation (wild-type, G782C, S764F)
T1 sequence: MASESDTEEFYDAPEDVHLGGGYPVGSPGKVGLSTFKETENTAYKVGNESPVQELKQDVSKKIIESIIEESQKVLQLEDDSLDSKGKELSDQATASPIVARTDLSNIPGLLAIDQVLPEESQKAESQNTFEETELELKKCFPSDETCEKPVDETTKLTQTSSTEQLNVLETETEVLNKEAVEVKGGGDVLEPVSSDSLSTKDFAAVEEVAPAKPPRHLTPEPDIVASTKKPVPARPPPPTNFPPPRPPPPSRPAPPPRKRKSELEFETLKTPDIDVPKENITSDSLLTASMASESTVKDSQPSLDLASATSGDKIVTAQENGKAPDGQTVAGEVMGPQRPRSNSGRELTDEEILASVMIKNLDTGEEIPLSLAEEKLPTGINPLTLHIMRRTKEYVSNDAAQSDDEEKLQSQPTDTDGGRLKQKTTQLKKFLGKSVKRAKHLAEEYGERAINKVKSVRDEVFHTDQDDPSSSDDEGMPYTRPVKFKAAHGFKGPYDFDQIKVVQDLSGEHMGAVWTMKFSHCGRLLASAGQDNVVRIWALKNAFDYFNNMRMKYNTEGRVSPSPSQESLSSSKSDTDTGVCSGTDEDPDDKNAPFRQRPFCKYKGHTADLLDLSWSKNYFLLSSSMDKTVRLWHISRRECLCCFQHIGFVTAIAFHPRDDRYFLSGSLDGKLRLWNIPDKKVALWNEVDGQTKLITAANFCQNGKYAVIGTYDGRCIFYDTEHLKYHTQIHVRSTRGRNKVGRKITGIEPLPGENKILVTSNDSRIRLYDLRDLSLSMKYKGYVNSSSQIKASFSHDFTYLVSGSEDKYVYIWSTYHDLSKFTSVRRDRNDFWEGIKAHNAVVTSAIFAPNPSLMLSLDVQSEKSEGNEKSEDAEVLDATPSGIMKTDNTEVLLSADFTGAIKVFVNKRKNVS

[2] = target: T2, Myc-tagged WDR44 D669N (human) (UniProt Q5JSH3); experiment: as above
T2 sequence: T1 sequence with G648D, D669N

binding [1]: binds | binding [2]: binds
Substance: GFP-tagged RAB11A (from UniProt P62491 1-216)
